# Laboratory results reported in US9938245B2 (THE TRUSTEES OF COLUMBIA UNIVERSITY IN THE CITY OF NEW YORK, priority 2014, dated 2018).
# Experiment: Comparative reactivity of carbonyl moieties with n-butylamine
# Details: n-butylamine in MeOH, 24 hours at 37° C.
row,Compound,conversion to imine
1,"CC(C)Oc1ccc(C=O)cc1 [Compound 8a, 4-isopropoxybenzaldehyde]",> 90%

# Same assay, conditions: n-butylamine in MeOH, 24 hours at 37° C., then NaBH3CN
row,Compound,Imine/SM ratio
1,"CC(C)Oc1ccc(C=O)cc1 [Compound 8a, 4-isopropoxybenzaldehyde]",10/1
2,"CC(=O)c1ccc(OC(C)C)cc1 [Compound 8b, 1-(4-isopropoxyphenyl)ethan-1-one]",3/1
3,"CC(C)Oc1ccc(C(=O)CN2CCNCC2)cc1 [Compound 8h, 1-(4-isopropoxyphenyl)-2-(piperazin-1-yl)ethan-1-one]",1/7
4,"CC(C)Oc1ccc(C(=O)CF)cc1 [Compound 8c, 2-fluoro-1-(4-isopropoxyphenyl)ethan-1-one]",1/1
5,"COc1ccc(CN2CCN(CC(=O)c3ccc(OC(C)C)cc3)CC2)cc1 [Compound 8g, 1-(4-isopropoxyphenyl)-2-(4-(4-methoxybenzyl)piperazin-1-yl)ethan-1-one]",1/4
